Measurements reported in PubChem BioAssay AID1259308 (NCATS, 2017).
The whole screen tested about 59,000 reagents; this is a random part of them. Over the whole deposit, about 1,510 (2.6%) were called active. 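Calls use total luciferase alone and ignore viability, so some active siRNAs may act by altering cell number.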 Entries without a mark were called inactive. Reagents against one gene are numbered here. Not all columns of the deposit are shown.

- Aim: 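Genes whose loss raises luciferase production in HEK293 cells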 (primary screen)
- Cell system: human HEK293 embryonic kidney cells stably expressing firefly luciferase (HEK-CMV-Luc2-Hygro)
- Knock-down reagent: single siRNA against human genes, 0.8 pmol siRNA per well
- Timing: 72 h
- Detection: 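Reporter luminescence and viable-cell signal on separate replicate plates, given as percent of non-targeting control and median/MAD z-scores, plus per-cell luciferase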
- Reading the numbers: total luciferase, z-score and total luciferase, % of control: higher = more reporter protein produced; luciferase per cell, z-score: higher = more reporter output per viable cell
- Call rule: 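Active when the median/MAD z-score for overall luciferase is greater than 3; a gene was taken forward for validation with new siRNAs if at least two of its three siRNAs passed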
- Calls: active = raised luciferase; inactive = no rise

gene knocked down	reagent no.	total luciferase, z-score	total luciferase, % of control	luciferase per cell, z-score
TMPRSS11F	1	-1.07	60.7	-1.33
TMPRSS11F	2	2.31	128	1.61
TMPRSS11F	3	0.515	92.1	-0.225
PPIAP19	1	-0.372	74.5	-0.76
PPIAP19	2	-0.0554	80.8	-0.963
PPIAP19	3	2.58	133	2.33
ATP5MK	1	-0.445	73	0.166
ATP5MK	2	-1.17	58.7	-1.58
ATP5MK	3	2.02	122	1.21
SLC35G2	1	0.0729	83.3	0.103
SLC35G2	2	-0.851	65	-0.986
SLC35G2	3	0.0463	82.8	-0.752
CRB2	1	-1.32	55.7	-1.53
CRB2	2	0.534	92.5	0.895
CRB2	3	0.457	91	0.917
CYP39A1	1	-1	62	-0.969
CYP39A1	2	2.75	137	2.59
CYP39A1	3	0.148	84.8	0.676
KCNK17	1	-0.88	64.4	-1.25
KCNK17	2	1.43	110	0.957
KCNK17	3	1.82	118	1.42

Copied from the entries so far for reference:
gene knocked down	reagent no.	total luciferase, z-score	total luciferase, % of control	luciferase per cell, z-score
CRB2	3	0.457	91	0.917
CYP39A1	1	-1	62	-0.969

Additional results:
gene knocked down	reagent no.	total luciferase, z-score	total luciferase, % of control	luciferase per cell, z-score
RABAC1	1	0.159	85	-0.0176
RABAC1	2	0.484	91.5	0.315
RABAC1	3	-1.05	61	-0.649
AARSD1	1	1.05	103	1.07
AARSD1	2	-1.07	60.5	-1.83
AARSD1	3	0.0777	83.4	-0.43
MIPEP	1	1.15	105	1.26
MIPEP	2	0.249	86.8	-0.416
MIPEP	3	-0.245	77	-0.2
MDFIC	1	3.27 (active)	147	2.26
MDFIC	2	-1.03	61.4	-1
MDFIC	3	-0.519	71.6	-0.285
C8A	1	-0.161	78.7	-0.567
C8A	2	-1.39	54.2	-1.77
C8A	3	-0.765	66.7	-0.81
APRT	1	-0.211	77.7	-0.68
APRT	2	-0.38	74.3	-0.621
APRT	3	0.325	88.3	-0.159
